These are yes or no findings as the source states them, for the method shown. Binding seen in cells or lysates may run through a third protein. Some entries that bind do so weakly or less than the wild type.
Target: Intercellular cell adhesion molecule-1 (ICAM-1), endogenous in NSCLC and bronchial epithelial cell lines (human (endogenous in A549, H1650, 16HBE)) (UniProt P05362)
Experiment: co-IP; cells treated with 5 mM DTBP for 30 min, lysed in TBS with 1% Triton X-100, 0.05% Tween 20 and protease and phosphatase inhibitors for 30 min on ice; lysates immunoprecipitated with the indicated antibodies (ICAM-1), rabbit IgG as control; immunoblot

By UniProt entry, the sequences of proteins in these tests, tags left out. Residues count along the entry.
UniProt P05362, residues 28-532: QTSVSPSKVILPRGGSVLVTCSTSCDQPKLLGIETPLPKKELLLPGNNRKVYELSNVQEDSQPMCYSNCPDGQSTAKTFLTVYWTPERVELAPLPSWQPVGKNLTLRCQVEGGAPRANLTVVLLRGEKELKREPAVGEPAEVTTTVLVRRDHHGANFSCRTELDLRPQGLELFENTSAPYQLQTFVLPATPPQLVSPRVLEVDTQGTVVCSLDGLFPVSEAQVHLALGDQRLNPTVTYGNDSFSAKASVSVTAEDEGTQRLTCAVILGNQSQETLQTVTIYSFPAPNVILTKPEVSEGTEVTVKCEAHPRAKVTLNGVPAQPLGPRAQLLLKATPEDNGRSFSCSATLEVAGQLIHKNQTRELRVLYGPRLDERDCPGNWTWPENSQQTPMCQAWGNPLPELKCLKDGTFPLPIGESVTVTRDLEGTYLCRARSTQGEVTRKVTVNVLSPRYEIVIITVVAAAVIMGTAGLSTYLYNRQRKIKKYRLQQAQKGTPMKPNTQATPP
UniProt P02679, residues 27-453: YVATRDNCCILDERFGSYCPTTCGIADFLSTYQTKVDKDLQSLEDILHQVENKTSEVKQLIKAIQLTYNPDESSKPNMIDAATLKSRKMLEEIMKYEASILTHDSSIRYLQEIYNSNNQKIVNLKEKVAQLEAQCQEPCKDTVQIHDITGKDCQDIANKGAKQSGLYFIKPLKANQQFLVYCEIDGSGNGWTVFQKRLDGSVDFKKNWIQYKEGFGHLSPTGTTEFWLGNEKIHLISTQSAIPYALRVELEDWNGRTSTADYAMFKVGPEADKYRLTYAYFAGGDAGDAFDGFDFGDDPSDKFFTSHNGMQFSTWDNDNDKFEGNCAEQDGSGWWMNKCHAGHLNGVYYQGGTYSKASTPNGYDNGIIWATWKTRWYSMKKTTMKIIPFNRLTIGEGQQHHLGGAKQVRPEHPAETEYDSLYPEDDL

binding: binds
Substance: fibrinogen γ chain (FGG), cancer cell-derived (from UniProt P02679 27-453) (ligand)
